Values quoted from earlier work, collected in patent publication US20220047616A1, “Method and Compositions for Treating HTLV-1 Virus Infection” (priority 2019, published 2022).
At least one compound was matched to its structure with a doubt left.

What was measured:
Details in all cases: reported; cited from earlier work
[1] = test system: HIV-1
[2] = test system: ECHO 6
[3] = test system: influenza A H7N1

C=C(C)[C@@H]1CC[C@]2(C(=O)O)CC[C@]3(C)[C@H](CC[C@@H]4[C@@]5(C)CC[C@H](O)C(C)(C)[C@@H]5CC[C@]43C)[C@@H]12 [Betulinic acid, betulinic acid]
some anti-viral activity: anti-viral activity against HIV-1 [1] | anti-viral activity against ECHO 6 [2] | anti-viral activity against influenza A H7N1 [3]
